Measured data: PubChem BioAssay AID1508597 (Cure First, 2020)
Shown is an unselected part of the about 2,100 reagents, in one setting of the screen. 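Calls flag viability under 80% in either arm, not effects specific to rucaparib; the reference for percent is not stated.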 Not given: the 100% reference.

Test: 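Knock-downs altering ovarian cancer cell survival with or without PARP inhibitor rucaparib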 (primary screen)
Cells: human ovarian carcinoma lines grown from tumours: OCI-P5x (papillary serous) and OCI-C5x (clear cell)
Knock-down reagent: siRNA pool against human genes, 1.25 pmol siRNA per well
Timing: 72 h or 96 h, depending on the cell culture
Conditions: rucaparib 20 µM (about IC30) or vehicle, present until read-out
Rucaparib or vehicle: Vehicle
Cell line: OCI-C5x (clear cell)
Detection: 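ATP luminescence measured at 72 or 96 h according to the culture, then normalised and expressed as percent viability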
Scale: viability, normalised: higher = more viable cells remaining
Hit rule: 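Active when normalised viability falls below 80 percent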
Calls: active = viability under 80%; inactive = viability 80% or more

With UBTF, technical replicate 1 the deposit lists viability, normalised (%) = 66; active. For UBTF, technical replicate 2, the values are viability, normalised (%) = 56; active. For UBTF, technical replicate 3 the deposit lists viability, normalised (%) = 53.7; active. TBL1X, technical replicate 1 showed viability, normalised (%) = 60.6; active. For TBL1X, technical replicate 2, the values are viability, normalised (%) = 35.8; active. For TBL1X, technical replicate 3, the entry reads viability, normalised (%) = 42.2; active.

PLK4, technical replicate 1 scored viability, normalised (%) = 72.5; active. PLK4, technical replicate 2 gave viability, normalised (%) = 51.1; active. For PLK4, technical replicate 3 the deposit lists viability, normalised (%) = 54.3; active. DDX31, technical replicate 1 scored viability, normalised (%) = 47.8; active. For DDX31, technical replicate 2, the values are viability, normalised (%) = 48.1; active. For DDX31, technical replicate 3, the entry reads viability, normalised (%) = 56.1; active.

RYR1, technical replicate 1 gave viability, normalised (%) = 44; active. For RYR1, technical replicate 2, the values are viability, normalised (%) = 30.4; active. RYR1, technical replicate 3 scored viability, normalised (%) = 34.6; active. For SNAPC4, technical replicate 1, the entry reads viability, normalised (%) = 36.2; active. SNAPC4, technical replicate 2 scored viability, normalised (%) = 51.6; active. SNAPC4, technical replicate 3 gave viability, normalised (%) = 44.4; active.

TRIM66, technical replicate 1 scored viability, normalised (%) = 62.9; active. TRIM66, technical replicate 2 gave viability, normalised (%) = 59.6; active. TRIM66, technical replicate 3 gave viability, normalised (%) = 61.4; active. With FTO, technical replicate 1, the entry reads viability, normalised (%) = 65.5; active. FTO, technical replicate 2 showed viability, normalised (%) = 63.6; active. With FTO, technical replicate 3, the entry reads viability, normalised (%) = 55; active.

RPS6KL1, technical replicate 1 gave viability, normalised (%) = 57.7; active. With RPS6KL1, technical replicate 2, the values are viability, normalised (%) = 76.6; active. RPS6KL1, technical replicate 3 gave viability, normalised (%) = 60.9; active. FGFR1, technical replicate 1 scored viability, normalised (%) = 76.5; active. With FGFR1, technical replicate 2, the entry reads viability, normalised (%) = 71.1; active. FGFR1, technical replicate 3 gave viability, normalised (%) = 72; active.

For MED7, technical replicate 1, the values are viability, normalised (%) = 45.1; active. With MED7, technical replicate 2 the deposit lists viability, normalised (%) = 47.5; active. MED7, technical replicate 3 gave viability, normalised (%) = 54.4; active.

Not a retest: 2 of the entries above.
UBTF, technical replicate 3: viability, normalised (%) = 53.7; Call = active
TBL1X, technical replicate 1: viability, normalised (%) = 60.6; Call = active
